Results taken from paper doi:10.1101/2021.03.31.437839.

Legend:
Assay in all cases: co-IP
[1] = molecular target: HA-JICD1 (JAG1 intracellular domain) (human) (UniProt P78504)
[2] = molecular target: HA-JICD1 (JAG1 intracellular domain) (human) (UniProt P78504); remark: listed apart in the source
[3] = molecular target: HA-JICD1 (JAG1 intracellular domain) (human) (UniProt P78504); remark: listed apart in the source

Measured: binding

FLAG-DDX17 (DEAD-Box Helicase 17) (from UniProt Q92841 1-729)
binds: [1] | [2] | [3]

Like-named read-outs stand apart in the source and are kept apart here. Results are given in words; binding and its absence hold for the method and conditions named. In cells and extracts the contact can be indirect. A result given as binding can be weak or reduced; the word gives no strength.
